The target of the assay is histone methyltransferase G9a (human (endogenous in PBMCs of COVID-19 patients)) (UniProt Q96KQ7). The assay can be described thus: affinity purification with mass spectrometry.

By UniProt entry, the sequences of proteins in these tests, tags left out.
UniProt Q96KQ7: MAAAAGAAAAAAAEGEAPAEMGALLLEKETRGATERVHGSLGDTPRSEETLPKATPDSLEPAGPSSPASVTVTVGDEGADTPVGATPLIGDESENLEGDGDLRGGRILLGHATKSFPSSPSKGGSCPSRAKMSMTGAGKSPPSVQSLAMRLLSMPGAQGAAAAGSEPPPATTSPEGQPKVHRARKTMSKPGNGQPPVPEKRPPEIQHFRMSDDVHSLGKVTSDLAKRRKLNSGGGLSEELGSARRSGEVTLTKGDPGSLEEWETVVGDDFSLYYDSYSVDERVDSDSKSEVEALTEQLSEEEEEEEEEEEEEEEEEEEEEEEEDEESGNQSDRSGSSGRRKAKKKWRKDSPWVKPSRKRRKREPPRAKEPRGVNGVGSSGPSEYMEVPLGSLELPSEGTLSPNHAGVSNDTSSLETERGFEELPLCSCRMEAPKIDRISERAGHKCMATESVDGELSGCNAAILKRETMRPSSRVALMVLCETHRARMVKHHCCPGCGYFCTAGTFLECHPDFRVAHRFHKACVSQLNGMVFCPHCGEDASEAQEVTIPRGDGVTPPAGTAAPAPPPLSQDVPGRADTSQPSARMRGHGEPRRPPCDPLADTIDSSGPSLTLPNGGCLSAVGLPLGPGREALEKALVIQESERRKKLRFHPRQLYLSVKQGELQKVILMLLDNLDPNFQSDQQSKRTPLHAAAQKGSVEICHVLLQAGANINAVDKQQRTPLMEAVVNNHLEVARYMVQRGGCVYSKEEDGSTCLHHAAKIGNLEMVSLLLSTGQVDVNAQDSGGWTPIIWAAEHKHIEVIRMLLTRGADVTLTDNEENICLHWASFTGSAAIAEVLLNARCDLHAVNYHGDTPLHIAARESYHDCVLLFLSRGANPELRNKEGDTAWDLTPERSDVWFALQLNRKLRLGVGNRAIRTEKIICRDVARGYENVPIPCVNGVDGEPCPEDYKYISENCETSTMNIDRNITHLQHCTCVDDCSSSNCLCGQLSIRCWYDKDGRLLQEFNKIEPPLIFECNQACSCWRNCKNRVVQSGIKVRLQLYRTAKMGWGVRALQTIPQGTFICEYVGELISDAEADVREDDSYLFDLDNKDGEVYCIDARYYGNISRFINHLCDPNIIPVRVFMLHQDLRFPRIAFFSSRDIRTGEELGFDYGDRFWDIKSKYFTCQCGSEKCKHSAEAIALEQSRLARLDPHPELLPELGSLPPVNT
UniProt Q86U44: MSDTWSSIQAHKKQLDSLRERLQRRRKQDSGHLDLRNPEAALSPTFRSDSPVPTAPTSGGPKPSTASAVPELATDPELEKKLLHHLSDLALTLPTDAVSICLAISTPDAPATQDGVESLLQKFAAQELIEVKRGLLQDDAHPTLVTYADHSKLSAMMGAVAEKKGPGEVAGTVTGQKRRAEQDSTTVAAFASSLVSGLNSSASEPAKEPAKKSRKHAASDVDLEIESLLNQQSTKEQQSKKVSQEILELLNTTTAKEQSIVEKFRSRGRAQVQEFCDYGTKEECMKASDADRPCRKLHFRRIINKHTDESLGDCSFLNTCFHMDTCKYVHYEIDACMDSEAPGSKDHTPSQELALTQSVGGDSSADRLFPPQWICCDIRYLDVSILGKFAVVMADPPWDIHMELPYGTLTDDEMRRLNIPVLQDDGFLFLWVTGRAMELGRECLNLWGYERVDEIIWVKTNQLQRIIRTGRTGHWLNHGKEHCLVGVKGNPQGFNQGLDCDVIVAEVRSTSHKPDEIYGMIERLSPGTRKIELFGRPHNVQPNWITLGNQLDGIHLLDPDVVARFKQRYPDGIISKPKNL

No constants are given. Whether binding was seen depends on the method and setting. Binding seen in cells or lysates may run through a third protein. A yes stands for co-enrichment or nearness to the bait. Other partners may have been found.

Regarding “N6-methyladenosine (m6A) RNA methylase METTL3 (from UniProt Q86U44 1-580) (enzyme)”, the binding entry is “binds”.

Values taken from publication doi:10.1101/2024.03.04.583415.
